Source: paper PMC2910240 (Neuroscience letters, 2010)

Amino acid sequences for entries named in this document (tags omitted).
UniProt P41595, whole entry: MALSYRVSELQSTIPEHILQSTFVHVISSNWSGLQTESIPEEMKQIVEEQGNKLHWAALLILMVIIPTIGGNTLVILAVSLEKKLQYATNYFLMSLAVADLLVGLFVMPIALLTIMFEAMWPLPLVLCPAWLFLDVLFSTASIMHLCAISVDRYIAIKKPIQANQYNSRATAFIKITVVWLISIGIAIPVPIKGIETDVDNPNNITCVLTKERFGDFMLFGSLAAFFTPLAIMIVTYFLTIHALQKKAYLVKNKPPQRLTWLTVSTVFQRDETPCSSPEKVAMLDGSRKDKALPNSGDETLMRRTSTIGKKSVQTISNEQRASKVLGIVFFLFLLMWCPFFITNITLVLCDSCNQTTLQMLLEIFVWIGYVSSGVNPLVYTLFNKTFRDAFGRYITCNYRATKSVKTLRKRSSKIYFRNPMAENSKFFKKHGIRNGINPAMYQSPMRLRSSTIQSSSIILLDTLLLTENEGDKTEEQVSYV

Biological target: h5-HT2B (Homo sapiens, UniProt P41595)
Assay: Competition radioligand binding

CC[C@@H](CO)NC(=O)[C@@H]1C=C2c3cccc4c3c(cn4C)C[C@H]2N(C)C1 [Methysergide, reference compound]
Ki: 2.4 nM
